These results are taken from article PMC7426924.

In test [1] the target is Flavobacterium johnsoniae chitobiase (FjGH20) (Flavobacterium johnsoniae) (UniProt A5FB64). The test can be described thus: SEC; HiLoad Superdex 200 16/60, isocratic, 50 mM Tris pH 8.0 with 250 mM NaCl; molecular weights by standard curve (12-200 kDa markers); both purified. A general note: SEC sorts molecules by how far they enter the pores of the column.
For test [2] the target is unchanged. Nature of the test: crystal structure; FjGH20 crystals from 14% PEGMME 5K, 0.1 M Na-malonate pH 7.5; 1.70 Å; two molecules in the asymmetric unit; interface analysed with PISA; both purified.
For test [3], the target named is Flavobacterium johnsoniae chitinase B (FjChiB) (Flavobacterium johnsoniae) (UniProt A5FB54). The test can be described thus: crystal structure; FjChiB crystals from 0.15 M magnesium formate, 15% PEG3550; 1.63 Å; one molecule in the asymmetric unit; both purified.

Results are given in words; binding and its absence hold for the method and conditions named.

B1: Flavobacterium johnsoniae chitobiase (FjGH20) (enzyme, UniProt A5FB64 17-688)
chain: QMQKEQLNLMPWPQNVVVNDGNFTLTKNFKVNISGNPDSRIFGGVTRFLRRLDGRTGIFFEQGFITKLNEFPNAELQINCTKNGKIGLYEDESYSLDVKANKITINATSDLGALHGLETLLQLLQNDSKKFYFPVSQISDFPRFTWRGLMLDASRHFQPVDVVKRNLDALAAMKMNVFHWHLVDDQGWRIETKKHPKLIELASDGLYYTQEEIRNIVKYADERGILIVPEIDVPGHGSAILTAYPEIGSKVITLTGGTSEKNIQGTAISTYRIERNAGIFSPTLDPSNPKTYKILSELFDEVCPLFPGAYFHIGGDENEGKDWDANPKIQEFKKKHNLKTNHELQTYFTMQLAPMLKKHGKQLMGWEEILTKDLSKEAIVHSWRGPNEGMVAGQSLVDAVKKGYKTVLSNGFYIDLMYPVASHYLNDPMPKGADLSAEEKARILGGEATMWTELATPETFDSRVWPRTAAIAERLWSAENITDVANMRKRLESVSFRLEELGLTHIKNKAVILRNIANNQNIKSVNEFTNVCEPLKGYTRNKGGTEYQMYSPFTLFADACTPDAKDSLAFDEAVSQYLANKSADNKAKVAAFFNKWIAVNKGLVELSANAPLVQPILPLSKKLSDASQELLLVLDNKSTLKTADLKTLIEQCNTKDHADVELSVYESLKKLI
B1: the binding result in test [1] and in test [2] was “no binding” in each case.

B2: Flavobacterium johnsoniae chitinase B (FjChiB) (enzyme, UniProt A5FB54 24-340)
chain: TSEKENNPEEVKSKKARVVGYLSADSFDKITSIEFCKLTHLNIAFANPDKNGNLVFDGDIDAVTKYVRSVNSNIVISISLAGGVISTEQAANWSLLIDKPENRPAFMQNISKFVTDHNLDGVDVDLEWDAVTSGYSGFVVELRKELTDRKKLLTAALPNNTRFVNINSEALNAFDFINIMAYDSTGPWSPNKIEQHSSFEFAKEGVEFWKKQNVPSEKLTLGVPFYGYNFTYPEVTSSTFGEIIQAGTQFADQDEIGKIYYNGRPTILKKVEYASQNTGGIMIWELAQDSFGEYSLLEVIHKKYTDLKYKTSGMCGN
In the case of B2, the binding entry in test [3] is “no binding”.
